From PubChem BioAssay AID493014 (National Center for Advancing Translational Sciences (NCATS), 2011)
Some of the results follow. Further columns of the screen follow, without active or inactive calls. Compounds called inactive in the main read-out are mostly missing here. The note in brackets gives the kind of curve behind each potency; many fits are weak.

Assay: qHTS Assay to Find Inhibitors of Chronic Active B-Cell Receptor Signaling
Conditions: ABC-DLBCL IkBa-CBG/CBR reporter, luminescence ratio (green luciferase fused to IkBa over red control in TMD8 lymphoma cells), 4 h
Summary of the method: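 Doxycycline induced both beetle luciferases in TMD8 lymphoma cells; IKK-driven degradation limits the IkappaBalpha-fused green signal, while red luminescence normalises for cell number and nonspecific effects. Compounds tested up to 46 uM, 4 hrs.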

[1] = measured here: CBR red luminescence, cell number

| SMILES | AC50 [1] | AC50 (measured here: IkBa-CBG green luminescence) |
| --- | --- | --- |
| O=C(CC1SC(N2CCCC2)=NC1=O)Nc1ccc(C(=O)Nc2ncccc2O)cc1 (stereo not drawn) | 32.6 µM [rising, single point] | – |
| Cc1oc2cc3oc(=O)c(CCC(=O)NCCN4CCOCC4)c(C)c3cc2c1C | 35.5 µM [falling, single point] | – |
| Cc1ccc(N/C=C/C(=O)c2ccccc2)cc1Br | 3.55 µM [falling, partial curve] | – |
| O=C(/C=C/Nc1ccc(F)cc1F)c1cccs1 | 16.4 µM [falling, partial curve] | – |
| COc1ccc(C(=O)Nc2ccc3[nH]c(-c4cccc(OC)c4)cc(=O)c3c2)cc1 | – | 3.26 µM [falling, single point] |
| CC1(C)CC(=O)C2=C(C1)OC(N)=C(C#N)C2c1ccccc1 (stereo not drawn) | 20 µM [falling, single point] | – |
| COc1cc(/C=N/Nc2ccccn2)ccc1O | 0.355 µM [rising, partial curve, poor fit] | – |
| Cc1ccc2oc(=O)c(/C=C(\O)c3sc(C)nc3C)nc2c1 | 20.6 µM [falling, single point] | – |
| O=C(NC(Cc1c[nH]c2ccccc12)C(=O)N/N=C/c1ccc(Br)cc1)c1cccs1 (stereo not drawn) | 22.4 µM [falling, single point] | – |
| CCOC(=O)c1sc(NC(=O)c2c(C)nn(Cc3ccccc3)c2C)cc1C | 20.6 µM [falling, partial curve, poor fit] | – |
| O=c1[nH]c2ccccc2nc1C(F)(F)F | 22.4 µM [falling, single point] | – |
| CN1CCN(c2ccc(NC(=O)c3ccc(-c4ccc(Cl)cc4)o3)cc2)CC1 | 11.2 µM [falling, partial curve] | – |
| CC(=O)c1ccc(NC(=O)c2ccc(CSc3ccccc3)o2)cc1 | 29.1 µM [falling, single point] | – |
| CCOC(=O)C1CCN(Cc2cc(C(C)(C)C)c(O)c(C(C)(C)C)c2)CC1 | 7.08 µM [falling, full curve, poor fit] | – |
| COc1ccc(S(=O)(=O)Nc2ccc(-c3ccc4nnc(C)n4n3)cc2)c(OC)c1 | 8.2 µM [rising, partial curve, poor fit] | – |
| O=C(Nc1ccc(-c2noc(-c3cccs3)n2)cc1)c1cccnc1 | 23.1 µM [falling, single point] | – |
| COc1cc(C=C2C(=O)c3ccccc3C2=O)ccc1O | 35.5 µM [falling, single point] | – |
| COC(=O)c1ccc(C(=O)OC)c(NC2=NS(=O)(=O)c3ccccc32)c1 | 6.51 µM [rising, single point] | – |
| Cc1ccc(-c2nc3scc(CCNC(=O)c4cccc(Br)c4)n3n2)cc1 | 17.8 µM [rising, single point] | – |
| O=C(N/N=C/c1cn(Cc2ccccc2)c2ccccc12)c1cc(O)cc(O)c1 | 12.6 µM [falling, partial curve] | – |
| S=c1[nH]c2cc(Cl)ccc2s1 | 35.5 µM [rising, single point] | – |
| COc1ccc(C(NC(=O)c2ccco2)c2ccc(OC)c(OC)c2)cc1 (stereo not drawn) | 7.31 µM [rising, single point] | – |

By substructure: the entries above with a Cl atom

| SMILES | AC50 [1] | AC50 (measured here: IkBa-CBG green luminescence) |
| --- | --- | --- |
| CN1CCN(c2ccc(NC(=O)c3ccc(-c4ccc(Cl)cc4)o3)cc2)CC1 | 11.2 µM [falling, partial curve] | – |
| S=c1[nH]c2cc(Cl)ccc2s1 | 35.5 µM [rising, single point] | – |

Later entries

| SMILES | AC50 [1] | AC50 (measured here: IkBa-CBG green luminescence) |
| --- | --- | --- |
| O=C(CN1CCCC1)Nc1sc2c(c1C(=O)Nc1ccc(Br)cc1)CCC2 | 2.24 µM [rising, full curve, poor fit] | – |
| O=C(NCCN1CCOCC1)c1cc(-c2ccccc2Cl)on1 | 35.5 µM [rising, single point] | – |
| CCOC(=O)c1cn(CC)c2c(ccc3ccccc32)c1=O | 5.62 µM [rising, single point] | – |
| O=C(COc1ccc(Cl)cc1Cl)Nc1ccc(S(=O)(=O)NC2=NCCCCC2)cc1 | 14.6 µM [falling, single point] | – |
| COc1cc(C=O)ccc1OCCOCCOc1ccccc1Cl | 5.01 µM [rising, single point] | – |
| COc1ccc(C(=O)Nc2ccc3ccccc3c2)cc1OC | 11.2 µM [falling, partial curve, poor fit] | – |
| COc1ccc(C)cc1-n1c(SCC(=O)NC2CC2)nc2ccccc2c1=O | 5.8 µM [falling, partial curve, poor fit] | – |
| Cc1ccc(S(=O)(=O)N(C)c2ccc(OC(=O)c3ccc(=O)[nH]c3)cc2)cc1 | 35.5 µM [falling, single point] | – |
| Cc1ccnc(Nc2nc(-c3ccccc3)cs2)c1 | 3.98 µM [falling, full curve] | – |
| COc1ccc(NC(=O)c2cccc(Oc3ccc([N+](=O)[O-])cc3Cl)c2)cc1 | 18.4 µM [falling, partial curve] | – |
| Cc1c(C(=O)NN2CCOCC2)oc2c1ccc1ccccc12 | 0.562 µM [rising, full curve, poor fit] | – |
| COc1ccccc1CC(=O)N1CCC(n2nccc2NC(=O)C2CCOC2)CC1 (stereo not drawn) | 35.5 µM [rising, partial curve, poor fit] | – |
| Cc1cc(C(=O)NNC(=O)c2ccc(Cl)cc2)no1 | 22.4 µM [falling, single point] | – |
| C=CCn1c(SCC(=O)c2cc(C)n(Cc3cccs3)c2C)nnc1-c1ccncc1 | 6.51 µM [rising, single point] | – |
| COc1ccc(/C=N/NC(=O)c2ccc(C)nc2)cc1O | 10 µM [falling, partial curve, poor fit] | – |
| Nc1ccc(NC(=O)c2cccs2)cc1 | 35.5 µM [falling, single point] | – |
| O=c1[nH]c2cc3c(cc2cc1CN(CCc1ccccc1)Cc1nnnn1C1CCCC1)OCCO3 | 10 µM [falling, partial curve, poor fit] | – |
| O=C(Nc1ccc(C(=O)O)cc1)Nc1ccc(F)cc1F | 7.08 µM [falling, partial curve] | – |
| Clc1ccc(-c2cnc3n2CCC3)cc1 | 0.355 µM [falling, full curve, poor fit] | – |
| Cc1ccccc1OCC(=O)Nc1sc2c(c1C#N)CC(C)(C)NC2(C)C | 12.6 µM [falling, partial curve, poor fit] | – |
| O=C(NCCc1c[nH]c2ccccc12)c1ccc2nc[nH]c2c1 | 29.1 µM [falling, single point] | – |
